# In PMC8910688:
# Results are given in words; binding and its absence hold for the method and conditions named. In cells and extracts the contact can be indirect. Some binding calls cover weakened binding; strength is not graded here. Tags and fused reporters may be left off the sequences shown.
# T1: GFP10-TRPC7-RLucII biosensor (human) (UniProt Q9HCX4)
# T1 sequence: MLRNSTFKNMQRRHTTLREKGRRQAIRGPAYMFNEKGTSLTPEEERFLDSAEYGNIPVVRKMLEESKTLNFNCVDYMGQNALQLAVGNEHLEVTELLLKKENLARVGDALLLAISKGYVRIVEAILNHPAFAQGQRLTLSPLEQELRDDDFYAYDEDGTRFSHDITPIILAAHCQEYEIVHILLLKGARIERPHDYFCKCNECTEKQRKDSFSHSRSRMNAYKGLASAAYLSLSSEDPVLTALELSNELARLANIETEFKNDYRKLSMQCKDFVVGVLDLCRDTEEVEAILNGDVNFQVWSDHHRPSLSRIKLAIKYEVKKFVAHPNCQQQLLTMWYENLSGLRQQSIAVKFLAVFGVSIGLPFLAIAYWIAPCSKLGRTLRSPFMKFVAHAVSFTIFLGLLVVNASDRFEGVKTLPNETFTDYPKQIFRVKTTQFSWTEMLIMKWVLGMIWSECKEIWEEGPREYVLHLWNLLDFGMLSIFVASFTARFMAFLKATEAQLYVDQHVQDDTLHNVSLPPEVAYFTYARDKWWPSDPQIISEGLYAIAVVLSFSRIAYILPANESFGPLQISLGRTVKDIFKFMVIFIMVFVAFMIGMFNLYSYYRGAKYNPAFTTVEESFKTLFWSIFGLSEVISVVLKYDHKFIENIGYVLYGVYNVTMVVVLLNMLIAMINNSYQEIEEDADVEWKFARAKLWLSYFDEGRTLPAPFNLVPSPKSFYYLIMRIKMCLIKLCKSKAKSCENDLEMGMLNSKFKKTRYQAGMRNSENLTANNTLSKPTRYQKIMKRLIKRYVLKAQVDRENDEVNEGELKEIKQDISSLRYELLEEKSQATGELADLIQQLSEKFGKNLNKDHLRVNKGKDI
# Biological target: T1, GFP10-TRPC7-RLucII biosensor (human)
# Assay: FRET or BRET; BRET^2 in living HEK293 cells co-transfected with GFP10-TRPC7-RLucII (75 ng), Gαq-DREADD (500 ng) and increasing untagged TRPC7 WT or TRPC3 WT (0 to 500 ng); basal BRET ratio read 48 h after transfection in HBSS with 20 mM HEPES, coelenterazine 400 A 5 µM
row,Binder,binding
1,"GFP10-TRPC7-RLucII biosensor (protein, UniProt Q9HCX4 1-862) MLRNSTFKNMQRRHTTLREKGRRQAIRGPAYMFNEKGTSLTPEEERFLDSAEYGNIPVVRKMLEESKTLNFNCVDYMGQNALQLAVGNEHLEVTELLLKKENLARVGDALLLAISKGYVRIVEAILNHPAFAQGQRLTLSPLEQELRDDDFYAYDEDGTRFSHDITPIILAAHCQEYEIVHILLLKGARIERPHDYFCKCNECTEKQRKDSFSHSRSRMNAYKGLASAAYLSLSSEDPVLTALELSNELARLANIETEFKNDYRKLSMQCKDFVVGVLDLCRDTEEVEAILNGDVNFQVWSDHHRPSLSRIKLAIKYEVKKFVAHPNCQQQLLTMWYENLSGLRQQSIAVKFLAVFGVSIGLPFLAIAYWIAPCSKLGRTLRSPFMKFVAHAVSFTIFLGLLVVNASDRFEGVKTLPNETFTDYPKQIFRVKTTQFSWTEMLIMKWVLGMIWSECKEIWEEGPREYVLHLWNLLDFGMLSIFVASFTARFMAFLKATEAQLYVDQHVQDDTLHNVSLPPEVAYFTYARDKWWPSDPQIISEGLYAIAVVLSFSRIAYILPANESFGPLQISLGRTVKDIFKFMVIFIMVFVAFMIGMFNLYSYYRGAKYNPAFTTVEESFKTLFWSIFGLSEVISVVLKYDHKFIENIGYVLYGVYNVTMVVVLLNMLIAMINNSYQEIEEDADVEWKFARAKLWLSYFDEGRTLPAPFNLVPSPKSFYYLIMRIKMCLIKLCKSKAKSCENDLEMGMLNSKFKKTRYQAGMRNSENLTANNTLSKPTRYQKIMKRLIKRYVLKAQVDRENDEVNEGELKEIKQDISSLRYELLEEKSQATGELADLIQQLSEKFGKNLNKDHLRVNKGKDI",binds
2,"TRPC7 WT (untagged) (protein, UniProt Q9HCX4 1-862) MLRNSTFKNMQRRHTTLREKGRRQAIRGPAYMFNEKGTSLTPEEERFLDSAEYGNIPVVRKMLEESKTLNFNCVDYMGQNALQLAVGNEHLEVTELLLKKENLARVGDALLLAISKGYVRIVEAILNHPAFAQGQRLTLSPLEQELRDDDFYAYDEDGTRFSHDITPIILAAHCQEYEIVHILLLKGARIERPHDYFCKCNECTEKQRKDSFSHSRSRMNAYKGLASAAYLSLSSEDPVLTALELSNELARLANIETEFKNDYRKLSMQCKDFVVGVLDLCRDTEEVEAILNGDVNFQVWSDHHRPSLSRIKLAIKYEVKKFVAHPNCQQQLLTMWYENLSGLRQQSIAVKFLAVFGVSIGLPFLAIAYWIAPCSKLGRTLRSPFMKFVAHAVSFTIFLGLLVVNASDRFEGVKTLPNETFTDYPKQIFRVKTTQFSWTEMLIMKWVLGMIWSECKEIWEEGPREYVLHLWNLLDFGMLSIFVASFTARFMAFLKATEAQLYVDQHVQDDTLHNVSLPPEVAYFTYARDKWWPSDPQIISEGLYAIAVVLSFSRIAYILPANESFGPLQISLGRTVKDIFKFMVIFIMVFVAFMIGMFNLYSYYRGAKYNPAFTTVEESFKTLFWSIFGLSEVISVVLKYDHKFIENIGYVLYGVYNVTMVVVLLNMLIAMINNSYQEIEEDADVEWKFARAKLWLSYFDEGRTLPAPFNLVPSPKSFYYLIMRIKMCLIKLCKSKAKSCENDLEMGMLNSKFKKTRYQAGMRNSENLTANNTLSKPTRYQKIMKRLIKRYVLKAQVDRENDEVNEGELKEIKQDISSLRYELLEEKSQATGELADLIQQLSEKFGKNLNKDHLRVNKGKDI",binds
3,"TRPC3 WT (untagged) (protein, UniProt Q13507 1-921) MSTKVRKCKEQARVTFPAPEEEEDEGEDEGAEPQRRRRGWRGVNGGLEPRSAPSQREPHGYCPPPFSHGPDLSMEGSPSLRRMTVMREKGRRQAVRGPAFMFNDRGTSLTAEEERFLDAAEYGNIPVVRKMLEESKTLNVNCVDYMGQNALQLAVGNEHLEVTELLLKKENLARIGDALLLAISKGYVRIVEAILNHPGFAASKRLTLSPCEQELQDDDFYAYDEDGTRFSPDITPIILAAHCQKYEVVHMLLMKGARIERPHDYFCKCGDCMEKQRHDSFSHSRSRINAYKGLASPAYLSLSSEDPVLTALELSNELAKLANIEKEFKNDYRKLSMQCKDFVVGVLDLCRDSEEVEAILNGDLESAEPLEVHRHKASLSRVKLAIKYEVKKFVAHPNCQQQLLTIWYENLSGLREQTIAIKCLVVLVVALGLPFLAIGYWIAPCSRLGKILRSPFMKFVAHAASFIIFLGLLVFNASDRFEGITTLPNITVTDYPKQIFRVKTTQFTWTEMLIMVWVLGMMWSECKELWLEGPREYILQLWNVLDFGMLSIFIAAFTARFLAFLQATKAQQYVDSYVQESDLSEVTLPPEIQYFTYARDKWLPSDPQIISEGLYAIAVVLSFSRIAYILPANESFGPLQISLGRTVKDIFKFMVLFIMVFFAFMIGMFILYSYYLGAKVNAAFTTVEESFKTLFWSIFGLSEVTSVVLKYDHKFIENIGYVLYGIYNVTMVVVLLNMLIAMINSSYQEIEDDSDVEWKFARSKLWLSYFDDGKTLPPPFSLVPSPKSFVYFIMRIVNFPKCRRRRLQKDIEMGMGNSKSRLNLFTQSNSRVFESHSFNSILNQPTRYQQIMKRLIKRYVLKAQVDKENDEVNEGELKEIKQDISSLRYELLEDKSQATEELAILIHKLSEKLNPSMLRCE",binds
